The target of this series is HuR-cMycHis (UniProt Q15717). As to the kind of experiment: AlphaScreen. The conditions noted are these: 1-3 nM HuR, 50 nM RNA, binding not affected by EGCG or TFMG; REMSA: 20 mM HEPES pH 7.5, 50 mM KCl, 0.5 ug BSA, 0.25% glycerol, room temperature, 1 h; AlphaScreen: dialysis buffer; recombinant protein; protein details: cMyc-His; label: 5'-biotin. A general note: Alpha assays give light when donor and acceptor beads are brought close together.

Chains of the proteins cited; added tags and fusions are not shown.
UniProt Q15717, whole entry: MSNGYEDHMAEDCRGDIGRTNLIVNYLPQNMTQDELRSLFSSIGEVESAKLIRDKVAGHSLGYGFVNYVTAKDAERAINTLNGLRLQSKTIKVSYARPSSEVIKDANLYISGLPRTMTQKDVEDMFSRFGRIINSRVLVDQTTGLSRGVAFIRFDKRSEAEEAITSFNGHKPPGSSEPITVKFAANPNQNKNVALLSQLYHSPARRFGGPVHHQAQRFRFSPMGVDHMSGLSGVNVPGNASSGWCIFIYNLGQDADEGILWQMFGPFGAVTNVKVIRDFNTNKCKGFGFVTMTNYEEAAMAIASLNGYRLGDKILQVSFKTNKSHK

The exact form of at least one protein or probe is not confirmed. At least one verdict rests on a figure or table, not on a statement of the authors.

Here are results for one sequence from paper PMC11084668.

For “AUUAUUUAUUAUUUAUUUAUUAUUUA [BiTNF (TNFalpha AU-rich element)]”, the binding result is recorded as “binds”.
